Taken from: PubChem BioAssay AID493246 (Drosophila RNAi Screening Center, 2011)
The screen tested about 21,000 reagents; this is an unselected part of those with a known target gene and a result. Of all reagents, 429 (2%) are marked active. 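Values are raw and not normalised between plates; calls rest on per-plate z-scores that were not deposited.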 A number with no mark means an inactive call. A plus sign joins genes that one reagent is predicted to hit. Not stated in the record: the amount of reagent, the time to read-out.

Purpose: 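Genes fly cells need to grow and stay alive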 (primary screen)
System: Drosophila Kc and S2R+ cells
Reagent: long dsRNA against Drosophila genes
Detection: 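Cell number per well after knock-down, printed as raw plate values; calls were based on per-plate z-scores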
Direction: Kc cell number and S2R+ cell number: higher = more cells remaining
Active means: 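Active when the per-plate z-score of cell number is 3 or more in the direction of fewer cells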

| gene knocked down | amplicon | Kc cell number, rep 1 | Kc cell number, rep 2 | S2R+ cell number, rep 1 | S2R+ cell number, rep 2 |
| --- | --- | --- | --- | --- | --- |
| CG15317 | DRSC18005 | 1.71e6 | 1.61e6 | 1.08e6 | 1.16e6 |
| Acp53C14c (Accessory gland protein 53C14c) | DRSC05626 | 5.17e5 | – | 7.26e5 | – |
| CG6983 | DRSC10757 | 1.40e6 | 1.46e6 | 1.27e6 | 1.15e6 |
| CG40005 (retired record) + cta | DRSC03763 | 6.90e5 | – | 8.97e5 | – |
| Grl40a (Gustatory receptor-like 40a) | DRSC03677 | 5.10e5 | – | 8.65e5 | – |
| CG32445 | DRSC11678 | 1.48e6 | 1.57e6 | 1.04e6 | 1.14e6 |
| SNRPG (Small nuclear ribonucleoprotein G) | DRSC20207 | 1.48e6 | 1.56e6 | 7.69e5 | 9.08e5 |
| Slmap (Sarcolemma associated protein) | DRSC03799 | 1.57e6 | 1.70e6 | 1.20e6 | 2.74e5 |
| CG31436 | DRSC14661 | 1.63e6 | 1.77e6 | 1.08e6 | 1.17e6 |
| CG33203 | DRSC14874 | 1.40e6 | 1.46e6 | 1.02e6 | 1.11e6 |
| CG33203 | DRSC14876 | 1.51e6 | 1.52e6 | 1.03e6 | 1.15e6 |
| CG33203 | DRSC14877 | 1.53e6 | 1.58e6 | 1.04e6 | 1.14e6 |
| Prx4 (Peroxiredoxin 4) | DRSC08668 | 1.54e6 | 1.43e6 | 1.16e6 | 1.39e6 |
| sqd (squid) | DRSC15160 | 1.45e6 | 1.59e6 | 1.08e6 | 1.19e6 |
| Septin4 (Septin 4) | DRSC20205 | 1.52e6 | 1.63e6 | 1.00e6 | 1.16e6 |
| rgn (regeneration) | DRSC11609 | 1.62e6 | 1.62e6 | 1.51e6 | 1.75e6 |
| Hmu (Hemomucin) | DRSC16705 | 1.54e6 | 1.58e6 | 1.04e6 | 1.19e6 |
| Dtg (Dpp target gene) | DRSC15998 | 1.54e6 | 1.62e6 | 1.25e6 | 1.34e6 |
| Swip-1 (Swiprosin-1) | DRSC02083 | 1.27e6 | 1.34e6 | 1.17e6 | 1.20e6 |
| Swip-1 (Swiprosin-1) | DRSC02084 | 1.43e6 | 1.50e6 | 1.23e6 | 2.89e5 |
| CG17734 | DRSC15256 | 1.41e6 | 1.38e6 | 1.02e6 | 1.18e6 |

Continued; the last 2 above are carried over.
| gene knocked down | amplicon | Kc cell number, rep 1 | Kc cell number, rep 2 | S2R+ cell number, rep 1 | S2R+ cell number, rep 2 |
| --- | --- | --- | --- | --- | --- |
| Swip-1 (Swiprosin-1) | DRSC02084 | 1.43e6 | 1.50e6 | 1.23e6 | 2.89e5 |
| CG17734 | DRSC15256 | 1.41e6 | 1.38e6 | 1.02e6 | 1.18e6 |
| MICAL-like | DRSC09829 | 1.32e6 | 1.29e6 | 1.30e6 | 1.05e6 |
| CG12539 | DRSC19470 | 1.51e6 | 1.52e6 | 1.05e6 | 1.20e6 |
| Ssl1 (Suppressor of stem-loop mutation) | DRSC11634 | 1.75e6 | 1.73e6 | 1.28e6 | 1.31e6 |
| CG13731 | DRSC10059 | 1.47e6 | 1.53e6 | 1.29e6 | 1.48e6 |
| CG7248 | DRSC10788 | 1.21e6 | 1.20e6 | 1.28e6 | 1.37e6 |
| Tret1-1 (Trehalose transporter 1-1) | DRSC07046 | 1.51e6 | 1.51e6 | 1.19e6 | 1.33e6 |
| Tret1-1 (Trehalose transporter 1-1) | DRSC07048 | 1.40e6 | 1.51e6 | 1.17e6 | 1.31e6 |
| Ufd1 (Ubiquitin fusion-degradation 1-like) | DRSC10607 | 1.33e6 | 1.41e6 | 1.35e6 | 1.15e6 |
| Fancl | DRSC14550 | 1.90e6 | 1.96e6 | 1.47e6 | 1.58e6 |
| BORCS6 (BLOC-1 related complex subunit 6) | DRSC08514 | 1.22e6 | 1.31e6 | 1.09e6 | 1.28e6 |
| Sf3b6 (Splicing factor 3b subunit 6) | DRSC09972 | 1.51e6 | 1.52e6 | 9.06e5 | 1.06e6 |
| LSm7 (Like Sm 7) | DRSC02251 | 1.48e6 | 1.50e6 | 1.20e6 | 1.32e6 |
| CG3078 | DRSC18531 | 3.39e5 | – | 6.99e5 | – |
| twy (twitchy) | DRSC10562 | 1.26e6 | 1.41e6 | 1.27e6 | 1.41e6 |
| CG30103 | DRSC06894 | 1.50e6 | 1.62e6 | 1.15e6 | 1.27e6 |
| Lnk | DRSC16729 | 5.06e5 | – | 7.45e5 | – |
| Amph (Amphiphysin) | DRSC07578 | 1.39e6 | 1.39e6 | 1.12e6 | 1.20e6 |
| Vps16B (Vacuolar protein sorting 16B) | DRSC15304 | 1.44e6 | 1.45e6 | 1.02e6 | 1.10e6 |
| CG42258 | DRSC19741 | 1.55e6 | 1.40e6 | 1.11e6 | 1.20e6 |
| CG42258 | DRSC19783 | 1.48e6 | 1.47e6 | 9.55e5 | 1.10e6 |
| CG6900 (retired record) | DRSC20018 | 1.52e6 | 1.47e6 | 1.04e6 | 1.18e6 |
| c(2)M (crossover suppressor on 2 of Manheim) | DRSC01922 | 1.59e6 | 1.60e6 | 1.28e6 | 1.36e6 |
| Wbp2 (WW domain binding protein 2) | DRSC09821 | 1.41e6 | 1.52e6 | 1.21e6 | 1.26e6 |
| Fign (Fidgetin) | DRSC00592 | 1.52e6 | 1.53e6 | 8.70e5 | 9.76e5 |
| Vps15 (Vacuolar protein sorting 15) | DRSC16553 | 1.53e6 | 1.55e6 | 1.10e6 | 1.14e6 |
| CG7889 | DRSC20066 | 1.65e6 | 1.65e6 | 1.21e6 | 1.34e6 |
| Tap42 (Two A-associated protein of 42kDa) | DRSC02967 | 1.57e6 | 1.76e6 | 1.16e6 | 1.21e6 |
| Cad88C (Cadherin 88C) | DRSC15486 | 1.33e6 | 1.35e6 | 1.11e6 | 1.22e6 |
| CG6484 | DRSC06991 | 1.36e6 | 1.45e6 | 1.07e6 | 1.10e6 |
| CG7330 | DRSC10813 | 1.41e6 | 1.68e6 | 1.41e6 | 1.51e6 |
| CG7330 | DRSC10814 | 1.66e6 | 1.93e6 | 1.38e6 | 1.52e6 |
| Drsl4 (Drosomycin-like 4) | DRSC08034 | 1.44e6 | 1.45e6 | 9.78e5 | 1.17e6 |
| osk (oskar) | DRSC17023 | 1.40e6 | 1.49e6 | 1.23e6 | 1.26e6 |
| OS9 (Olfactory-specific 9) | DRSC02700 | 1.57e6 | 1.65e6 | 1.30e6 | 2.95e5 |
| CG14323 | DRSC14802 | 1.64e6 | 1.70e6 | 1.28e6 | 1.37e6 |
| CG15443 | DRSC00455 | 1.73e6 | 1.75e6 | 1.28e6 | 1.50e6 |
| Nhe3 (Na[+]/H[+] hydrogen exchanger 3) | DRSC03380 | 1.47e6 | 1.41e6 | 1.08e6 | 1.27e6 |
| CG42307 + mus312 | DRSC11008 | 1.39e6 | 1.42e6 | 1.19e6 | 1.25e6 |
